These results are taken from PMC9587031, “Antibiotic polymyxin arranges lipopolysaccharide into crystalline structures to solidify the bacterial membrane” (Nature Communications, 2022).

Some entries repeat one wording, which the source may state once for all of them. Positions of bridges follow the written chain, without caps; N, C: chain ends. Non-standard residues stand in square brackets, D forms with d. Residues, ends and D or L forms follow the SMILES beside them. *: point of attachment. Aha = [N-]=[N+]=NCC[C@H](N)C(=O)O; Heptanoyl(6-Me) = CC(C)CCCCC(=O)*; X1 = CC[C@H](C)CCCCC(=O)*; Dab = NCC[C@H](N)C(=O)O

The subject of data set [1] is OM patches from E. coli MG1655 WT strain. Description: AFM change in membrane area, height and volume of OM patches. The following applies: for Height of OM patch: Suppl. Fig. 9d; for Volume of OM patch: Suppl. Fig. 9e. Also noted: species or system Escherichia coli.
The test system is the same in data set [2]. Description: AFM imaging of crystalline structure formation on OM patches. Also noted: species or system Escherichia coli. The settings on record: OM patches MG1655 WT incubated with 50 mg/l of the polymyxin variant (Fig. 3), repeated at least three times. As to the method:
E. coli MG1655 strains were transformed with the pY200 plasmid that carries an mCherry gene preceded by the periplasmic export signal of the skp protein under control of the lux promoter. This construct enables over-expression of mCherry into the periplasmic space, which in turn increases the OMV production. Cultures were grown in LB medium (Difco) with 50 µg/ml spectinomycin (Fischer Scientific) at 37 °C. Expression of mCherry was induced at an OD600 ≈ 0.4 by N-(β ketocaproyl)-L-homoserine lactone (HSL, Cayman Chemical). After induction, the cultures were grown until they reached the early stationary phase, and bacteria were removed by centrifugation at 10,000 g for 10 min. The supernatant was filtered through a 0.45 µm filter unit (Merck Millipore) for the removal of residual bacteria. The OMVs were collected from the filtered supernatant by centrifugation at 38,400 g for 1.5 h. The pellet was resuspended in 12 ml Dulbecco’s phosphate-buffered saline buffer supplemented with magnesium and calcium (Sigma-Aldrich), and collected by two rounds of ultracentrifugation at 100,000 g for 1 h each. In the last step, the OMVs were resuspended in 1 ml DPBS buffer, aliquoted, and stored at –80 °C.
OMVs produced from different E. coli MG1655 strains were adsorbed onto freshly cleaved mica for 15 min in DPBS buffer at room temperature. After adsorption, the sample was gently washed with fresh DPBS buffer for five times to remove non-adsorbed OMVs. Then OMVs were imaged using force-distance curve-based AFM (FD-based AFM) performed with an AFM (Nanoscope Multimode 8, Bruker) operated in PeakForce Tapping mode in buffer solution (DPBS) at room temperature. The AFM was equipped with a 120 μm piezoelectric J scanner and fluid cell. The images were recorded using two different AFM cantilevers: PEAKFORCE‐HiRs‐F‐A (Bruker) with a nominal spring constant of 0.4 N/m, a resonance frequency of ≈ 165 kHz in liquid, and a sharpened silicon tip with a nominal radius of ≈ 1 nm or SCANASYST-FLUID + (Bruker) with a nominal spring constant of 0.7 N/m, a resonance frequency of ≈ 150 kHz in liquid, and a sharpened silicon tip with a nominal radius of ≈ 2 nm. Before imaging, cantilevers were calibrated by ramping on the mica surface and the thermal tuning method. Images were recorded at 2 kHz oscillation frequency, by applying an imaging force of 100–120 pN with a vertical amplitude of 30 nm. The AFM was placed inside a home‐built acoustic isolated and temperature‐controlled box. Raw AFM images were processed using the AFM analysis software Nanoscope v.1.8 for levelling and flattening.
AFM images were transformed with an automated image analysis script that identifies and characterizes local features by their Fourier transformation (FT)[60]. The analysis applies a moving local window (32×32 pixels, step size:16 pixels) on AFM images, and for each local window, a 2D power spectrum FT is computed, followed by machine learning processing. First, the number of components/fractions in the data is determined by computing the principal component analysis scree plot. Secondly, the data is blindly decomposed into different interpretable components by non-negative matrix factorization. The analysis script is publicly available as a Python analysis notebook and program for batch processing at (10.17632/25x46xjyr5.2).
Processed AFM images were analyzed using ilastik software (version 1.4.0b13) for automated (supervised) pixel classification with trained classifiers. Classifier files are available upon request. Through classification, the probability maps of AFM images were generated and exported as.tif files. The probability maps were opened in Fiji (ImageJ2 v.2.3.0) to perform particle analysis on threshold-selected features. The distance comparison histograms were generated from particle analysis data using Python’s data visualization library seaborn (v.0.11.2).

In the case of `CCCCCCCCCCCC[N+](C)(C)[O-]` [LDAO, N, N-dimethyl-1-dodecanamine-N-oxide], the “Height of OM patch” value in data set [1] (LDAO 0.11 mg/l, Patch1, same patch at 0 mg/l 6.41) turned out to be 6.39 nm; in data set [1] (LDAO 0.11 mg/l, Patch 2, same patch at 0 mg/l 6.53), 6.34 nm; in data set [1] (LDAO 0.11 mg/l, Patch 3, same patch at 0 mg/l 6.97) it was 6.56 nm; in data set [1] (LDAO 1.1 mg/l, Patch1, same patch at 0 mg/l 6.41), 6.23 nm; in data set [1] (LDAO 1.1 mg/l, Patch 2, same patch at 0 mg/l 6.53), 6.27 nm; in data set [1] (LDAO 1.1 mg/l, Patch 3, same patch at 0 mg/l 6.97), 6.44 nm. Moreover, the “Height of OM patch” value in data set [1] (LDAO 11.5 mg/l, Patch1, same patch at 0 mg/l 6.41) worked out at 5.91 nm; in data set [1] (LDAO 11.5 mg/l, Patch 2, same patch at 0 mg/l 6.53), 6.23 nm; in data set [1] (LDAO 11.5 mg/l, Patch 3, same patch at 0 mg/l 6.97), 6.55 nm; in data set [1] (LDAO 115 mg/l, Patch1, same patch at 0 mg/l 6.41), 5.68 nm; in data set [1] (LDAO 115 mg/l, Patch 2, same patch at 0 mg/l 6.53), 6.14 nm; in data set [1] (LDAO 115 mg/l, Patch 3, same patch at 0 mg/l 6.97) it was 6.38 nm. Further, the “Volume of OM patch” value in data set [1] (LDAO 0.11 mg/l, Patch1, same patch at 0 mg/l 1013254) came to 1028307 nm^3; in data set [1] (LDAO 0.11 mg/l, Patch 2, same patch at 0 mg/l 496584), 494754 nm^3; in data set [1] (LDAO 0.11 mg/l, Patch 3, same patch at 0 mg/l 223104), 236268 nm^3; in data set [1] (LDAO 1.1 mg/l, Patch1, same patch at 0 mg/l 1013254), 1028280 nm^3; in data set [1] (LDAO 1.1 mg/l, Patch 2, same patch at 0 mg/l 496584), 495093 nm^3; in data set [1] (LDAO 1.1 mg/l, Patch 3, same patch at 0 mg/l 223104) it was 238391 nm^3. Moreover, the “Volume of OM patch” value in data set [1] (LDAO 11.5 mg/l, Patch1, same patch at 0 mg/l 1013254) is 1027992 nm^3; in data set [1] (LDAO 11.5 mg/l, Patch 2, same patch at 0 mg/l 496584) it was 597600 nm^3; in data set [1] (LDAO 11.5 mg/l, Patch 3, same patch at 0 mg/l 223104), 274932 nm^3; in data set [1] (LDAO 115 mg/l, Patch1, same patch at 0 mg/l 1013254) it was 1844375 nm^3; in data set [1] (LDAO 115 mg/l, Patch 2, same patch at 0 mg/l 496584), 939114 nm^3; in data set [1] (LDAO 115 mg/l, Patch 3, same patch at 0 mg/l 223104), 408128 nm^3. Also, the “increase in area of OM patches” value in data set [1] (detergent concentration 11.5 mg/l, DPBS, n = 3 OM patches) is recorded as “around two-fold”. The “maximal decrease in membrane height” value in data set [1] (increasing LDAO concentrations, DPBS, n = 3 OM patches) is given as “≈ 9%”.
Take `CC(C)C[C@@H]1NC(=O)[C@@H](Cc2ccccc2)NC(=O)[C@H](CCN)NC(=O)[C@@H](NC(=O)[C@H](CCN)NC(=O)[C@@H](N)[C@@H](C)O)CCNC(=O)[C@H]([C@@H](C)O)NC(=O)[C@H](CCN)NC(=O)[C@H](CCN)NC1=O` [Polymyxin B nonapeptide] (H-T[Dab][Dab][Dab][dF]L[Dab][Dab]T; lactam 3-C (inferred); N-terminus assumed): the “formation of crystalline structures” value in data set [2] is reported as “Crystalline structures are formed”; in data set [2] (listed as PMBN), “induced crystalline structures”.
Take `CC[C@H](C)CCCCC(=O)N[C@@H](CCN)C(=O)N[C@H](C(=O)N[C@@H](CCN)C(=O)N[C@H]1CCNC(=O)[C@H]([C@@H](C)O)NC(=O)[C@H](CCN)NC(=O)[C@H](CCN)NC(=O)[C@H](CC(C)C)NC(=O)[C@@H](Cc2ccccc2)NC(=O)[C@H](CCN)NC1=O)[C@@H](C)O` [Polymyxin B] (X1-[Dab]T[Dab][Dab][Dab][dF]L[Dab][Dab]T; lactam 4-C (inferred); N-terminus assumed): the “formation of crystalline structures” value is “Crystalline structures are formed” in data set [2] and “induced crystalline structures” in data set [2] (listed as PMB).
On to `CC(C)C[C@@H]1NC(=O)[C@@H](CC(C)C)NC(=O)[C@H](CCN)NC(=O)[C@@H](NC(=O)[C@H](CCN)NC(=O)[C@@H](NC(=O)[C@@H](N)CCN)[C@@H](C)O)CCNC(=O)[C@H]([C@@H](C)O)NC(=O)[C@H](CCN)NC(=O)[C@H](CCN)NC1=O` [Polymyxin E intermediate-length] (H-[Dab]T[Dab][Dab][Dab][dL]L[Dab][Dab]T; lactam 4-C), for which the “formation of crystalline structures” value in data set [2] was “Crystalline structures are formed”.
Take `CC(C)C[C@@H]1NC(=O)[C@@H](CC(C)C)NC(=O)[C@H](CCN)NC(=O)[C@@H](NC(=O)[C@H](CCN)NC(=O)[C@@H](N)[C@@H](C)O)CCNC(=O)[C@H]([C@@H](C)O)NC(=O)[C@H](CCN)NC(=O)[C@H](CCN)NC1=O` [Polymyxin E nonapeptide] (H-T[Dab][Dab][Dab][dL]L[Dab][Dab]T; lactam 3-C): the “formation of crystalline structures” value in data set [2] was “Structures are not formed”; in data set [2] (listed as PMEN), “did not”.
Consider `CC(C)CCCCC(=O)N[C@@H](CCN)C(=O)N[C@H](C(=O)N[C@@H](CCN)C(=O)N[C@H]1CCNC(=O)[C@H]([C@@H](C)O)NC(=O)[C@H](CCN=[N+]=[N-])NC(=O)[C@H](CCN)NC(=O)[C@H](CC(C)C)NC(=O)[C@@H](CC(C)C)NC(=O)[C@H](CCN)NC1=O)[C@@H](C)O` [Polymyxin E with charge change] ({Heptanoyl(6-Me)}-[Dab]T[Dab][Dab][Dab][dL]L[Dab][Aha]T; lactam 4-C), for which, in data set [2], the “formation of crystalline structures” value is “Structures are not formed”.
Consider `CC(C)CCCCC(=O)N[C@@H](CCN)C(=O)N[C@H](C(=O)N[C@@H](CCN)C(=O)N[C@H]1CCNC(=O)[C@@H]([C@H](C)O)NC(=O)[C@H](CCN)NC(=O)[C@H](CCN)NC(=O)[C@H](CC(C)C)NC(=O)[C@@H](CC(C)C)NC(=O)[C@H](CCN)NC1=O)[C@@H](C)O` [Polymyxin E with stereochemistry change] ({Heptanoyl(6-Me)}-[Dab]T[Dab][Dab][Dab][dL]L[Dab][Dab][dT]; lactam 4-C), for which the “formation of crystalline structures” value in data set [2] (listed as enantiomer variant Thr10 (L- > D)) is given as “Crystalline structures are formed”; in data set [2] (listed as polymyxin E analogue with a D-Thr10 residue), “induced the formation of crystalline structures”.
